Data reported in patent US20070292409A1 (University of California, published 2007).
Results are given in words; binding and its absence hold for the method and conditions named. Binding seen in cells or lysates may run through a third protein. Some entries that bind do so weakly or less than the wild type.

Sequences of proteins named here, by UniProt entry; tags and fusion partners are left off. Residues count along the entry.
UniProt P26450, residues 2-724: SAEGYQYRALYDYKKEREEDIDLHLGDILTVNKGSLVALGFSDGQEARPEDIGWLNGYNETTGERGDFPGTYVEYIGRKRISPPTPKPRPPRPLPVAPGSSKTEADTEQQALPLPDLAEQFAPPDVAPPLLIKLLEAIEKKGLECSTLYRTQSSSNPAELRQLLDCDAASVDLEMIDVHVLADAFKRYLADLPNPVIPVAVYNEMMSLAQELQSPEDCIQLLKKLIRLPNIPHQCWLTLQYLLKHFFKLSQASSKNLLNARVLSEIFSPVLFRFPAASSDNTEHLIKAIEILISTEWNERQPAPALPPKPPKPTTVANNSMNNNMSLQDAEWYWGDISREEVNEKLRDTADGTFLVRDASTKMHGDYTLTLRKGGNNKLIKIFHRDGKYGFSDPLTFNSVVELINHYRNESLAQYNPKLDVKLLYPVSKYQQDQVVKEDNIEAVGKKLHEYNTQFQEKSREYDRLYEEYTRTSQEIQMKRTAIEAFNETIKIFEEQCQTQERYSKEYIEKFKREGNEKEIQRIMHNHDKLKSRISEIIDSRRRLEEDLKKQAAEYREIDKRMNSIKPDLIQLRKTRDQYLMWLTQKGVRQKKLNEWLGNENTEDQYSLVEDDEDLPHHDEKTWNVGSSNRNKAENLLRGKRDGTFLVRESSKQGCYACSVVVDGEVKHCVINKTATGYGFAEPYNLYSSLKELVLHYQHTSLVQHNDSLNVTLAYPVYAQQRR
UniProt P60766, residues 1-188: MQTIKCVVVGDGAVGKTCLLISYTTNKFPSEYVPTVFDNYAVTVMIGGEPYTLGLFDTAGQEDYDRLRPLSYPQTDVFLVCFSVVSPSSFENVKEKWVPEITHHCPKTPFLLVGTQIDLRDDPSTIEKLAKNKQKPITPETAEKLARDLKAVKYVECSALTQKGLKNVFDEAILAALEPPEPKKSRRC
UniProt P21279: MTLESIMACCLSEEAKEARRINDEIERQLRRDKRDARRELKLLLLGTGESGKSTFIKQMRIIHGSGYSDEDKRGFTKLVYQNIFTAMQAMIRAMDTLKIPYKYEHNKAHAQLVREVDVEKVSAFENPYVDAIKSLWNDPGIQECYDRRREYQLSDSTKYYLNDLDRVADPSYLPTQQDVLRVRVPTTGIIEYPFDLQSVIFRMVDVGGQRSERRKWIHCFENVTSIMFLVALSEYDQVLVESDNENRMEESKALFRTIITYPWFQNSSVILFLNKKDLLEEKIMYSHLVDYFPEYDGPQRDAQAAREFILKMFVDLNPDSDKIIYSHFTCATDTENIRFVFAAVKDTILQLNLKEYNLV
UniProt P35569: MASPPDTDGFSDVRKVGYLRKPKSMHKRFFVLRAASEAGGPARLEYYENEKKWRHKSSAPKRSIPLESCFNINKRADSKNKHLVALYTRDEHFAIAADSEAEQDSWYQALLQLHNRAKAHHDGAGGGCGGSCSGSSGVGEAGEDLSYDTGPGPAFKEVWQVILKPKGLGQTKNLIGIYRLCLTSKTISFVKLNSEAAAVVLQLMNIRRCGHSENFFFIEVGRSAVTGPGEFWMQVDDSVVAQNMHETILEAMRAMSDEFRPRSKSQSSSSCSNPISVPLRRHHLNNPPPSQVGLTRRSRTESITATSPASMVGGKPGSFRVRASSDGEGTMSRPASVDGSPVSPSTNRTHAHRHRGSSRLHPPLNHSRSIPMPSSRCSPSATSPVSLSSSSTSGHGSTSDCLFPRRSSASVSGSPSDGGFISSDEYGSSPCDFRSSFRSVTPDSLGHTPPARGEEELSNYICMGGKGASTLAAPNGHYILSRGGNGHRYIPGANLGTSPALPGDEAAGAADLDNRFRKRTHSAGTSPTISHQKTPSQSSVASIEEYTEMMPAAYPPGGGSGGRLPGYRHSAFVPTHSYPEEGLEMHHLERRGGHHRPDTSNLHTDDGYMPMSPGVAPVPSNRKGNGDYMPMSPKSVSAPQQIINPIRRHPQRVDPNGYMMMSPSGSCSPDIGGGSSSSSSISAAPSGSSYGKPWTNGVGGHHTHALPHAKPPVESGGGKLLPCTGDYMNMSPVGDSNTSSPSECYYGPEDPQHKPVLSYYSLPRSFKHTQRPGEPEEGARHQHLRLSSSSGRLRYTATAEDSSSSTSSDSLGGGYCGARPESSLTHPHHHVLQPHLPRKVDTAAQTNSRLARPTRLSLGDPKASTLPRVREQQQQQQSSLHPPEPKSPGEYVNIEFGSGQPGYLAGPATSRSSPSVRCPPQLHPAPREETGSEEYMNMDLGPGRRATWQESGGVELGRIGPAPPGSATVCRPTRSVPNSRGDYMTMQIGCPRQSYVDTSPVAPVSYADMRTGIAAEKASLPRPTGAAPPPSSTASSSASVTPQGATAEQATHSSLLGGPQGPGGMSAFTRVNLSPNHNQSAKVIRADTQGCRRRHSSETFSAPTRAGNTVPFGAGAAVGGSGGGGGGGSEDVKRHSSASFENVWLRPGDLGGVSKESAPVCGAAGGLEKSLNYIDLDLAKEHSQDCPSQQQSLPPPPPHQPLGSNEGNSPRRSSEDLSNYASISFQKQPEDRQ
UniProt Q13153, residues 67-150: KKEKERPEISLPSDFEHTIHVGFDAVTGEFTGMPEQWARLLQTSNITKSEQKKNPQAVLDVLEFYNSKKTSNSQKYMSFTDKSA

Tests used:
[1] = target: p85 (PI3-kinase subunit), endogenous protein of 3T3-L1 adipocytes (UniProt P26450); test: co-immunoprecipitation with anti-IRS-1 antibody, anti-p85 blot; 3T3-L1 adipocytes with or without 10 nM ET-1 for 24 h, 17 nM insulin for 10 min
[2] = target: p85 (PI3-kinase subunit), endogenous protein of 3T3-L1 adipocytes (UniProt P26450); test: co-immunoprecipitation with anti-IRS-1 antibody, anti-p85 blot; 3T3-L1 adipocytes, 17 nM insulin for 10 min
[3] = target: p85 (PI3-kinase subunit), endogenous protein of 3T3-L1 adipocytes (UniProt P26450); test: co-immunoprecipitation with anti-cdc42 antibody, anti-p85 blot; 3T3-L1 adipocytes, 17 nM insulin for 10 min; inhibited by overexpression of WT- or KD-GRK2
[4] = target: cdc42, endogenous protein of 3T3-L1 adipocytes (UniProt P60766); test: pull-down of active cdc42 from 3T3-L1 adipocyte lysates with GST-PAK-1 agarose beads, anti-cdc42 blot
[5] = target: G protein-q/11 α-subunit (Gαq/11), endogenous protein of 3T3-L1 adipocytes (UniProt P21279); test: co-immunoprecipitation with anti-GRK2 antibody, anti-Gαq/11 blot; 3T3-L1 adipocytes, 17 nM insulin or 10 nM ET-1 time course
[6] = target: IRS-1, endogenous protein of 3T3-L1 adipocytes (UniProt P35569); test: co-immunoprecipitation with anti-GRK2 antibody, anti-IRS-1 blot; 3T3-L1 adipocytes, 10 nM ET-1 time course; insulin (17 nM) did not induce the association
[7] = target: G protein-q/11 α-subunit (Gαq/11), endogenous protein of 3T3-L1 adipocytes (UniProt P21279); test: heading of the result section of Example 2; co-immunoprecipitation from 3T3-L1 adipocyte lysates
[8] = target: G protein-q/11 α-subunit (Gαq/11), endogenous protein of 3T3-L1 adipocytes (UniProt P21279); test: co-immunoprecipitation with anti-GRK2 antibody, anti-Gαq/11 blot; 3T3-L1 adipocytes, 17 nM insulin time course
[9] = target: G protein-q/11 α-subunit (Gαq/11), endogenous protein of 3T3-L1 adipocytes (UniProt P21279); test: heading of the result section; co-immunoprecipitation from 3T3-L1 adipocyte lysates

## IRS-1, endogenous protein of 3T3-L1 adipocytes (from UniProt P35569 1-1233)
[1]
  binding: binds
[2]
  binding: binds

## cdc42, endogenous protein of 3T3-L1 adipocytes (from UniProt P60766 1-188)
[3]
  binding: binds

## GST-PAK-1 (PAK-1 agarose beads of the Upstate cdc42 assay kit) (from UniProt Q13153 67-150)
[4]
  binding: binds

B1: G protein-coupled receptor kinase 2 (GRK2), endogenous protein of 3T3-L1 adipocytes (enzyme, UniProt Q99MK8 1-689, looked up)
chain: MADLEAVLADVSYLMAMEKSKATPAARASKKILLPEPSIRSVMQKYLEDRGEVTFEKIFSQKLGYLLFRDFCLNHLEEAKPLVEFYEEIKKYEKLETEEERVVRSREIFDSYIMKELLACSHPFSKNATEHVQGHLVKKQVPPDLFQPYIEEICQNLRGDVFQKFIESDKFTRFCQWKNVELNIHLTMNDFSVHRIIGRGGFGEVYGCRKADTGKMYAMKCLDKKRIKMKQGETLALNERIMLSLVSTGDCPFIVCMSYAFHTPDKLSFILDLMNGGDLHYHLSQHGVFSEADMRFYAAEIILGLEHMHNRFVVYRDLKPANILLDEHGHVRISDLGLACDFSKKRPHASVGTHGYMAPEVLQKGVAYDSSADWFSLGCMLFKLLRGHSPFRQHKTKDKHEIDRMTLTMAVELPDSFSPELRSLLEGLLQRDVNRRLGCLGRGAQEVKESPFFRSLDWQMVFLQKYPPPLIPPRGEVNAADAFDIGSFDEEDTKGIKLLDSDQELYRNFPLTISERWQQEVAETVFDTINAETDRLEARKKAKNKQLGHEEDYALGKDCIVHGYMSKMGNPFLTQWQRRYFYLFPNRLEWRGEGEAPQSLLTMEEIQSVEETQIKERKCLLLKIRGGKQFVLQCDSDPELVQWKKELRDAYREAQQLVQRVPKMKNKPRSPVVELSKVPLIQRGSANGL
notes: Precipitated from cell lysate with a rabbit polyclonal anti-GRK2 antibody; also called endogenous GRK2
[5]
  binding: binds
[6]
  binding: binds
[7]
  binding: binds
[8]
  binding: binds
[9]
  binding: binds
